Data as given in PMC4881172.
Results are given in words; binding and its absence hold for the method and conditions named. In cells and extracts the contact can be indirect. Some binding calls cover weakened binding; strength is not graded here.

The chains behind the UniProt entries cited, without tags or fusion partners.
UniProt P49950: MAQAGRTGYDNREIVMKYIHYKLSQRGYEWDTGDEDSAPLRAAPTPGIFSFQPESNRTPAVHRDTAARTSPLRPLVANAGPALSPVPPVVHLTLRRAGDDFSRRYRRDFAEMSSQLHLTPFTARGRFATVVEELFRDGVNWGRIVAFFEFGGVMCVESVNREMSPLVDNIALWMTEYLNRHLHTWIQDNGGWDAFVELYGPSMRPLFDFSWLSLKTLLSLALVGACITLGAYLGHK
UniProt P10415: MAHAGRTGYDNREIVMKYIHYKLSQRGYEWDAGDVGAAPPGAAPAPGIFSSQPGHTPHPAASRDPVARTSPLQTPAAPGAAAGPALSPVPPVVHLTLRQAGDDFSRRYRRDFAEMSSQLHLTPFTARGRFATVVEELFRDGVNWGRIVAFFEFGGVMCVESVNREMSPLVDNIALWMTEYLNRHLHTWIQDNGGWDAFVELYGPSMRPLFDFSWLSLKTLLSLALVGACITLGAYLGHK
UniProt Q91XJ1: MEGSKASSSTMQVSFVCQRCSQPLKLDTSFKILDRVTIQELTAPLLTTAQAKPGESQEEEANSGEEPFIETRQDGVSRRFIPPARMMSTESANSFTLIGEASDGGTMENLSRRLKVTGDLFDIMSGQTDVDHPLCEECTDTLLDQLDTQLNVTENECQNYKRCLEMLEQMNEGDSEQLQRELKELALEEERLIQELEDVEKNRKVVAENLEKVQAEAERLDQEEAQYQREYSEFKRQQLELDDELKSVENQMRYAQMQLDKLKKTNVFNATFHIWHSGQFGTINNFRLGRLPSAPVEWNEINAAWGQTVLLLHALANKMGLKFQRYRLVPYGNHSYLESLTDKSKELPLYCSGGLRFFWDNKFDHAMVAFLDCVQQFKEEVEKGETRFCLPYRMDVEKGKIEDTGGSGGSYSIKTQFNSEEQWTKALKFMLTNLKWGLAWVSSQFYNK
UniProt Q14457: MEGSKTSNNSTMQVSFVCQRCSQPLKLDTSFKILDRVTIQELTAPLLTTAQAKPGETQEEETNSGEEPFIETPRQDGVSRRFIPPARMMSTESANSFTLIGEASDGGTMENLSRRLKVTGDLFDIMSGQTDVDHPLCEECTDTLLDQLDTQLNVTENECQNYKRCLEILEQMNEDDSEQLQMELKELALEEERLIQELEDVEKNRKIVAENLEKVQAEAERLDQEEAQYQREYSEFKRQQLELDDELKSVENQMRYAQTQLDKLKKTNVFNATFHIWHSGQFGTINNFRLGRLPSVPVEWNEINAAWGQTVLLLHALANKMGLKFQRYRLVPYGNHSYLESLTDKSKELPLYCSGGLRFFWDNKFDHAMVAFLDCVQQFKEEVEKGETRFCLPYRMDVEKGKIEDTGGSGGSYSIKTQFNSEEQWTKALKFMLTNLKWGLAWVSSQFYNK

Key:
[1] = target: Bcl-2 (rat (endogenous in H9c2)) (UniProt P49950); assay: co-IP; whole-cell lysates of H9c2 cells starved 0-240 min with or without 100 uM ginsenoside Rg1; 10 ug antibody with 1 ml lysate at 4 °C overnight, Protein A/G-agarose 4 h, Western blot (methods: IP anti-Beclin1, blot anti-Bcl-2; legend of Fig. 5: IP anti-Bcl-2, blot anti-Beclin1)
[2] = target: Yellow fluorescent protein (YFP)-Bcl-2 (UniProt P10415); assay: FRET or BRET; live H9c2 cells stably co-expressing CFP-BECN1 and YFP-Bcl-2, glucose-free Tyrode's solution at 37 °C with or without 25, 50 or 100 uM ginsenoside Rg1; microplate reader every 10 min, excitation 436 nm, emission 527 nm

| Substance | binding [1] | binding [2] |
| --- | --- | --- |
| Beclin1 (from UniProt Q91XJ1 1-448) | binds | – |
| Cyan fluorescent protein (CFP)-BECN1 (from UniProt Q14457 1-450) | – | binds |
